# Experimental data reported in the supplement of paper PMC12823440, “Inhibitors supercharge kinase turnover through native proteolytic circuits” (Nature, 2025).
# Sequences of proteins named here, by UniProt entry; tags and fusion partners are left off. A change or cut given only in a name is not applied to a line headed by its entry.
# UniProt P21860, whole entry: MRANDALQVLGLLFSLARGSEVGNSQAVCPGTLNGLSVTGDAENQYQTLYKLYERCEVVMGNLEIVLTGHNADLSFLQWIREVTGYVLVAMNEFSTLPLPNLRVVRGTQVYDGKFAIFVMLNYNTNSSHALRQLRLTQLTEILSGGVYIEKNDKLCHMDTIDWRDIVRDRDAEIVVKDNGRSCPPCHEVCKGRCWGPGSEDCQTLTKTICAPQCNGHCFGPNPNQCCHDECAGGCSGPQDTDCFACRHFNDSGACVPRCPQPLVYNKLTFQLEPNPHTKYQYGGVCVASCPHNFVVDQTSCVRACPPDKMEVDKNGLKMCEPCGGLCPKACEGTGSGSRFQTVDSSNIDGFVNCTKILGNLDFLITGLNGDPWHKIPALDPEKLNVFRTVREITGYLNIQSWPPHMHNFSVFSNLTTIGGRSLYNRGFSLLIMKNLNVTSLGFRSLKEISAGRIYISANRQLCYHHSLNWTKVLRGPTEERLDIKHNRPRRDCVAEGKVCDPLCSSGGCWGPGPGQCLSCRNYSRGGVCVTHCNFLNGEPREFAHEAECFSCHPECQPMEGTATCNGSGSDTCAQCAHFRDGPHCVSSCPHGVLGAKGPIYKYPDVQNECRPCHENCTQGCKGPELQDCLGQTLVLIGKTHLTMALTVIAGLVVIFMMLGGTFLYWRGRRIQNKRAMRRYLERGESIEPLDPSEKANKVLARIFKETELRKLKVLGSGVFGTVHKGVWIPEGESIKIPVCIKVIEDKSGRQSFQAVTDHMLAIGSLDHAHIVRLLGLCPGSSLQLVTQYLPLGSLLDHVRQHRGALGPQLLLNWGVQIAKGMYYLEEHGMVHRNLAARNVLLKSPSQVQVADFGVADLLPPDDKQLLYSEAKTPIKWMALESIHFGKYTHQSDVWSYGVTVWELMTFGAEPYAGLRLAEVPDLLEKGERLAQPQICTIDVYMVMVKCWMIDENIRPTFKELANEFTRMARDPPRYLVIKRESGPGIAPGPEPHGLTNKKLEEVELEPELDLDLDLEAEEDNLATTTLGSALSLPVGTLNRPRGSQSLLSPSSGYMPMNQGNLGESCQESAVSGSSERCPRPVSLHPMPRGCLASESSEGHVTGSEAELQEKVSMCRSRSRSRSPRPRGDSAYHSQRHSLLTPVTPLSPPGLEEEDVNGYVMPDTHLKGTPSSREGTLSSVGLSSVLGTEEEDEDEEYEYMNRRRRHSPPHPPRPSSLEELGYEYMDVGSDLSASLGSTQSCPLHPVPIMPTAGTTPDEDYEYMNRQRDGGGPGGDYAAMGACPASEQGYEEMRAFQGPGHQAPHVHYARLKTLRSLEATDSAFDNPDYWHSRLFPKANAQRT
# UniProt Q15303, whole entry R711C: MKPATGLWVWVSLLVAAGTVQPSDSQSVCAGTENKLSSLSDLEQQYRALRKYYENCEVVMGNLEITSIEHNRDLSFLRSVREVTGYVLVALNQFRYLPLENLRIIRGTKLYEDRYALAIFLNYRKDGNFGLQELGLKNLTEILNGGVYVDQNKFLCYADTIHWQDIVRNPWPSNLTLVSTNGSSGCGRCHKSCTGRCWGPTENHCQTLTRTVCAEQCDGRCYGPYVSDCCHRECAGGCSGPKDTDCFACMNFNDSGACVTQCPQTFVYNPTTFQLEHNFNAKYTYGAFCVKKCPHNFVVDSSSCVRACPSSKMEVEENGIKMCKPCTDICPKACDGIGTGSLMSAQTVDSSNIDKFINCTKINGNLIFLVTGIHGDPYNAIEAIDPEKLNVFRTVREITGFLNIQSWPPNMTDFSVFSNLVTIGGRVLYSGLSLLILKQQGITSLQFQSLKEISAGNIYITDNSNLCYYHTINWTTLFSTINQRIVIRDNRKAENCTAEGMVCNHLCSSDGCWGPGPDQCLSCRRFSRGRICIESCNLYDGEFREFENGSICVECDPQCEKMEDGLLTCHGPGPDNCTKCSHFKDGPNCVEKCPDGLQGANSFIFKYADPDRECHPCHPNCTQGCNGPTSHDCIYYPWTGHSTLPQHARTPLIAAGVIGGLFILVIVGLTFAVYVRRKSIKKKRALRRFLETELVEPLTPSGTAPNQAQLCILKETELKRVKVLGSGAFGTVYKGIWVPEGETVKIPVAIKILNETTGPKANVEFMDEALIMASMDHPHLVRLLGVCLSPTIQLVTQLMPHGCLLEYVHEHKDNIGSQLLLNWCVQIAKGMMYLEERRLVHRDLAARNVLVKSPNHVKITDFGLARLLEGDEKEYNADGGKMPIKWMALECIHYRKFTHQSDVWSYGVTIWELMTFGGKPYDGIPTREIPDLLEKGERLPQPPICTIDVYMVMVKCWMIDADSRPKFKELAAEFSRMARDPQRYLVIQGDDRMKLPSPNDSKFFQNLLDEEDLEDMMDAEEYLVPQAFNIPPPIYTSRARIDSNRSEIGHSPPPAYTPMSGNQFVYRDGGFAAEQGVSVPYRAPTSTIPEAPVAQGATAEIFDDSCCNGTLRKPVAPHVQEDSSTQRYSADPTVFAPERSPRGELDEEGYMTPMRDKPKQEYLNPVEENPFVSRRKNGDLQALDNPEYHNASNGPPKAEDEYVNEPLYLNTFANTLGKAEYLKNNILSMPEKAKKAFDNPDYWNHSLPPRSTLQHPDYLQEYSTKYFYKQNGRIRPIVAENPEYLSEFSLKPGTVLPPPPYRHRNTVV
# UniProt O75460: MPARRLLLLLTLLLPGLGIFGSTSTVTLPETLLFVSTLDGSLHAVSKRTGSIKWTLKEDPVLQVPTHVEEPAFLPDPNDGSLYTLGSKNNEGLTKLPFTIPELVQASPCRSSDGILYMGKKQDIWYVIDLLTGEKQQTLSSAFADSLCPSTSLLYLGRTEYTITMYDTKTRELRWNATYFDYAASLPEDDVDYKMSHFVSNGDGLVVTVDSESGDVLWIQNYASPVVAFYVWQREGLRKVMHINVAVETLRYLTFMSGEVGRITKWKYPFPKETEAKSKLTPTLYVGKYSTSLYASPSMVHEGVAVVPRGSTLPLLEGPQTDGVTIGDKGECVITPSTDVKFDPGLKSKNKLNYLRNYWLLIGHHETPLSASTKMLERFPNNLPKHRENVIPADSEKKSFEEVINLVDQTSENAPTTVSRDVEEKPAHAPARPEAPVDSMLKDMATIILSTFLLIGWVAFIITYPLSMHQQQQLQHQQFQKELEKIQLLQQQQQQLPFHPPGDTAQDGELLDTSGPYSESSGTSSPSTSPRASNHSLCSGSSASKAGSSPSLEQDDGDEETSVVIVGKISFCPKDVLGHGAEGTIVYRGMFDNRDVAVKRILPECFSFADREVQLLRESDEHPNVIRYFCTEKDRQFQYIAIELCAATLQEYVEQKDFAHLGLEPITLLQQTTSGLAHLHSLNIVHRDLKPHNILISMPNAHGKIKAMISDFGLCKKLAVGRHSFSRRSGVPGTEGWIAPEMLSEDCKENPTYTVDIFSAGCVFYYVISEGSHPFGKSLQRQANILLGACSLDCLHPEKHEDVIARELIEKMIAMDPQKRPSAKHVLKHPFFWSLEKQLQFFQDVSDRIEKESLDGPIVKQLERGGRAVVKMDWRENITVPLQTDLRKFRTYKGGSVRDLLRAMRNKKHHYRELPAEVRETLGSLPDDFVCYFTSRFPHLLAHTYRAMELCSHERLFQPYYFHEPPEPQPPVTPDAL
# UniProt P11362, whole entry, looked up: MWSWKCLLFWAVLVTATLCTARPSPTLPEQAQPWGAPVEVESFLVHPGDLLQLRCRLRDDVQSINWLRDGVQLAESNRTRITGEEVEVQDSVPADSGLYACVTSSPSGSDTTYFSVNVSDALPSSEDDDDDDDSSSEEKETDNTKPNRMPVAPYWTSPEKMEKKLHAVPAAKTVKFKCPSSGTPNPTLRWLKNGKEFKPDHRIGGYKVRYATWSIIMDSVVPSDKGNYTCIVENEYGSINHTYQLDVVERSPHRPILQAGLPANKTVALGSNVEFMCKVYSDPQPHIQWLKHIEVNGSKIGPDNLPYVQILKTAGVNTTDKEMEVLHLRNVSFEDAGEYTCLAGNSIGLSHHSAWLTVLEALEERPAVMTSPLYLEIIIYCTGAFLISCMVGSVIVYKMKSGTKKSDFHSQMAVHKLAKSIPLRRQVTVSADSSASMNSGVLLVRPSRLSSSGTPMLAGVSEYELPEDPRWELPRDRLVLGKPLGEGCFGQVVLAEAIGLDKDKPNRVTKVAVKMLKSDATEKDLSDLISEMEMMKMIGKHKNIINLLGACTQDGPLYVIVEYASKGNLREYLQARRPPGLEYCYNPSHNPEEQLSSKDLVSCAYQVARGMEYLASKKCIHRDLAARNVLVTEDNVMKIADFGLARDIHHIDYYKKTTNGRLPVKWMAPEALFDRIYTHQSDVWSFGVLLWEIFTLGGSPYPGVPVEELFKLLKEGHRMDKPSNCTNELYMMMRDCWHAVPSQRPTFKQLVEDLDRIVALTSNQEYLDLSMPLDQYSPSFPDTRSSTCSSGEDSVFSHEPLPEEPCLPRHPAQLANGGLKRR
# UniProt P22607, whole entry, looked up: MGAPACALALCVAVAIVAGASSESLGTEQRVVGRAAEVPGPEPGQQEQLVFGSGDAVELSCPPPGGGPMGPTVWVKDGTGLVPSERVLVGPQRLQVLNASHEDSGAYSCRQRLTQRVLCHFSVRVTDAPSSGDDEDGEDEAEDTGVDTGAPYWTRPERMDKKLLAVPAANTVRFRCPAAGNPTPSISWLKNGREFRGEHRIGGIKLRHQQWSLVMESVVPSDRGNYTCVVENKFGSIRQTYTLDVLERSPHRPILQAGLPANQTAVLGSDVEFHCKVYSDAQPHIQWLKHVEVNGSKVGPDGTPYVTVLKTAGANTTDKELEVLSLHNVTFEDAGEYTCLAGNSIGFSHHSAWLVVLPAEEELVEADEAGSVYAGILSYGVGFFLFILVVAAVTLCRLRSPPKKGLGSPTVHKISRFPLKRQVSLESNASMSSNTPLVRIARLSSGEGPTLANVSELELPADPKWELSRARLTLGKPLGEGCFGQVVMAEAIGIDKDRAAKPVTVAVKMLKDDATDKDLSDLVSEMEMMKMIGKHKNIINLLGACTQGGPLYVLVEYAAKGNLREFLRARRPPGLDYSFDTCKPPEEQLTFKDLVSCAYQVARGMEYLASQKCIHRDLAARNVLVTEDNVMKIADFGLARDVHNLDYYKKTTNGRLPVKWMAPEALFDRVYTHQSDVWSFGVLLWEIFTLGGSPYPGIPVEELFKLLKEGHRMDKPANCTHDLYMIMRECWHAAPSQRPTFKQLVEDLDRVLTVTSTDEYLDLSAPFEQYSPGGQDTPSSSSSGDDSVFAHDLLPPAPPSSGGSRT
# UniProt P06241, whole entry, looked up: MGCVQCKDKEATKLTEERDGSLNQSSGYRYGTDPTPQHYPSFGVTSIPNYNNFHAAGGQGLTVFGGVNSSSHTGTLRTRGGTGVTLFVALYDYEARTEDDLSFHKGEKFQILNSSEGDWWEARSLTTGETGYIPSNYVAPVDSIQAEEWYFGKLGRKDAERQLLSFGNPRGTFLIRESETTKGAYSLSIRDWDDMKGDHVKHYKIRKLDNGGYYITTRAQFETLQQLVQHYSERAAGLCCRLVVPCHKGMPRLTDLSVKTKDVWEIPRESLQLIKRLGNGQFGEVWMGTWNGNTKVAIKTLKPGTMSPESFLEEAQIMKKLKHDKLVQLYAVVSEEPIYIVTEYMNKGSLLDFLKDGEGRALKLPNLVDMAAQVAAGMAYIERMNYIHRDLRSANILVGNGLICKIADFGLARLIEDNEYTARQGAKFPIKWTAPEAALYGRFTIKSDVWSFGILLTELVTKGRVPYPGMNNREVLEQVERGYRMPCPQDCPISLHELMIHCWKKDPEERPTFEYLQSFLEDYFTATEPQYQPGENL
# UniProt P49840: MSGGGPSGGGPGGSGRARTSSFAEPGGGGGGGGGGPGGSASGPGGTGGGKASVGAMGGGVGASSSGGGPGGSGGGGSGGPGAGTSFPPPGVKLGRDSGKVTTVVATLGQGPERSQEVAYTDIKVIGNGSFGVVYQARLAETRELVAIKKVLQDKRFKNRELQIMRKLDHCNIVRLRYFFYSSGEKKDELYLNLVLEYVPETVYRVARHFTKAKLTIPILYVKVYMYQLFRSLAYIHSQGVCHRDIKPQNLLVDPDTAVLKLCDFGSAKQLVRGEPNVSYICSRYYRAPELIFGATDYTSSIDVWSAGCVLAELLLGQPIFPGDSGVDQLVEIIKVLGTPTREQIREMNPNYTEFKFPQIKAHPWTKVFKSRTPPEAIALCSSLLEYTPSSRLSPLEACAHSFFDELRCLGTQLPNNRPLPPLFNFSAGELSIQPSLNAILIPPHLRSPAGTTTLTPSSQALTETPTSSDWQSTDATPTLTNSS
# Structures can show the parent of a compound that is named as a salt. This is one part of the list. Hit calls seldom repeat between salt and free forms of one compound.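 Kinases were expressed as nanoluciferase fusions in K562 cells and luminescence was read every 4 h between 2 and 18 h as percent of control, DMSO set to 100% and a positive control to 0%. A time point counts as decreased when the signal drops significantly (2 sigma). The hit call is the authors' own, does not follow from the count of time points alone, and its rule is not shown.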
# Assays:
# Test in all cases: kinase-Nluc reporter destabilization hit call (1 = scored as downregulated) (binary); higher = compound decreases kinase abundance
# Conditions in all cases: K562, 2-18 h
# EGFR = EGFR (UniProt P00533)
# EGFR_G719S = EGFR_G719S (UniProt P00533)
# EGFR_G719S_T790M = EGFR_G719S_T790M (UniProt P00533)
# EGFR_L718V = EGFR_L718V (UniProt P00533)
# EGFR_L858R = EGFR_L858R (UniProt P00533)
# EGFR_L861Q = EGFR_L861Q (UniProt P00533)
# EGFR_T790M = EGFR_T790M (UniProt P00533)
# EPHA2 = EPHA2 (UniProt P29317)
# ERBB3 = ERBB3 (UniProt P21860)
# [1] = biological target: ERBB4_R711C (clone: ERBB4_mut) (UniProt Q15303)
# ERN1 = ERN1 (UniProt O75460)
# FGFR1 = FGFR1 (UniProt P11362)
# FGFR2 = FGFR2 (UniProt P21802)
# FGFR3 = FGFR3 (UniProt P22607)
# FGR = FGR (UniProt P09769)
# FLT3 = FLT3 (UniProt P36888)
# FYN = FYN (UniProt P06241)
# GSK3A = GSK3A (UniProt P49840)
# HER2 = HER2 (UniProt P04626)
# INSRR = INSRR (UniProt P14616)
smiles,measurement,setting,value
Oc1cccc(-c2nc(N3CCOCC3)c3oc4ncccc4c3n2)c1 [PI-103 (Hydrochloride)],kinase-Nluc reporter destabilization hit call,EGFR; 2.5 µM,inactive: 0
same,kinase-Nluc reporter destabilization hit call,EGFR_G719S; 2.5 µM,inactive: 0
same,kinase-Nluc reporter destabilization hit call,EGFR_G719S_T790M; 2.5 µM,inactive: 0
same,kinase-Nluc reporter destabilization hit call,EGFR_L718V; 2.5 µM,inactive: 0
same,kinase-Nluc reporter destabilization hit call,EGFR_L858R; 2.5 µM,inactive: 0
same,kinase-Nluc reporter destabilization hit call,EGFR_L861Q; 2.5 µM,inactive: 0
same,kinase-Nluc reporter destabilization hit call,EGFR_T790M; 2.5 µM,inactive: 0
same,kinase-Nluc reporter destabilization hit call,EPHA2; 2.5 µM,inactive: 0
same,kinase-Nluc reporter destabilization hit call,ERBB3; 2.5 µM,inactive: 0
same,kinase-Nluc reporter destabilization hit call,[1]; 2.5 µM,inactive: 0
same,kinase-Nluc reporter destabilization hit call,ERN1; 2.5 µM,inactive: 0
same,kinase-Nluc reporter destabilization hit call,FGFR1; 2.5 µM,inactive: 0
same,kinase-Nluc reporter destabilization hit call,FGFR2; 2.5 µM,inactive: 0
same,kinase-Nluc reporter destabilization hit call,FGFR3; 2.5 µM,inactive: 0
same,kinase-Nluc reporter destabilization hit call,FGR; 2.5 µM,inactive: 0
same,kinase-Nluc reporter destabilization hit call,FLT3; 2.5 µM,inactive: 0
same,kinase-Nluc reporter destabilization hit call,FYN; 2.5 µM,inactive: 0
same,kinase-Nluc reporter destabilization hit call,GSK3A; 2.5 µM,inactive: 0
same,kinase-Nluc reporter destabilization hit call,HER2; 2.5 µM,inactive: 0
same,kinase-Nluc reporter destabilization hit call,INSRR; 2.5 µM,inactive: 0
COc1ncc(F)cc1CNc1ccc(Cc2c[nH]c3ncc(C)cc23)c(F)n1,kinase-Nluc reporter destabilization hit call,EGFR; 10 µM,inactive: 0
same,kinase-Nluc reporter destabilization hit call,EGFR_G719S; 10 µM,inactive: 0
same,kinase-Nluc reporter destabilization hit call,EGFR_G719S_T790M; 10 µM,inactive: 0
same,kinase-Nluc reporter destabilization hit call,EGFR_L718V; 10 µM,inactive: 0
same,kinase-Nluc reporter destabilization hit call,EGFR_L858R; 10 µM,inactive: 0
same,kinase-Nluc reporter destabilization hit call,EGFR_L861Q; 10 µM,inactive: 0
same,kinase-Nluc reporter destabilization hit call,EGFR_T790M; 10 µM,inactive: 0
same,kinase-Nluc reporter destabilization hit call,EPHA2; 10 µM,inactive: 0
same,kinase-Nluc reporter destabilization hit call,ERBB3; 10 µM,inactive: 0
same,kinase-Nluc reporter destabilization hit call,[1]; 10 µM,inactive: 0
same,kinase-Nluc reporter destabilization hit call,ERN1; 10 µM,inactive: 0
same,kinase-Nluc reporter destabilization hit call,FGFR1; 10 µM,inactive: 0
same,kinase-Nluc reporter destabilization hit call,FGFR2; 10 µM,inactive: 0
same,kinase-Nluc reporter destabilization hit call,FGFR3; 10 µM,inactive: 0
same,kinase-Nluc reporter destabilization hit call,FGR; 10 µM,inactive: 0
same,kinase-Nluc reporter destabilization hit call,FLT3; 10 µM,inactive: 0
same,kinase-Nluc reporter destabilization hit call,FYN; 10 µM,inactive: 0
same,kinase-Nluc reporter destabilization hit call,GSK3A; 10 µM,inactive: 0
same,kinase-Nluc reporter destabilization hit call,HER2; 10 µM,inactive: 0
same,kinase-Nluc reporter destabilization hit call,INSRR; 10 µM,inactive: 0
C#Cc1cccc(Nc2ncnc3cc4c(cc23)OCCOCCOCCO4)c1 [Icotinib],kinase-Nluc reporter destabilization hit call,EGFR; 10 µM,inactive: 0
same,kinase-Nluc reporter destabilization hit call,EGFR_G719S; 10 µM,inactive: 0
same,kinase-Nluc reporter destabilization hit call,EGFR_G719S_T790M; 10 µM,inactive: 0
same,kinase-Nluc reporter destabilization hit call,EGFR_L718V; 10 µM,inactive: 0
same,kinase-Nluc reporter destabilization hit call,EGFR_L858R; 10 µM,inactive: 0
same,kinase-Nluc reporter destabilization hit call,EGFR_L861Q; 10 µM,inactive: 0
same,kinase-Nluc reporter destabilization hit call,EGFR_T790M; 10 µM,inactive: 0
same,kinase-Nluc reporter destabilization hit call,EPHA2; 10 µM,inactive: 0
same,kinase-Nluc reporter destabilization hit call,ERBB3; 10 µM,inactive: 0
same,kinase-Nluc reporter destabilization hit call,[1]; 10 µM,inactive: 0
same,kinase-Nluc reporter destabilization hit call,ERN1; 10 µM,inactive: 0
same,kinase-Nluc reporter destabilization hit call,FGFR1; 10 µM,inactive: 0
same,kinase-Nluc reporter destabilization hit call,FGFR2; 10 µM,inactive: 0
same,kinase-Nluc reporter destabilization hit call,FGFR3; 10 µM,inactive: 0
same,kinase-Nluc reporter destabilization hit call,FGR; 10 µM,inactive: 0
same,kinase-Nluc reporter destabilization hit call,FLT3; 10 µM,inactive: 0
same,kinase-Nluc reporter destabilization hit call,FYN; 10 µM,inactive: 0
same,kinase-Nluc reporter destabilization hit call,GSK3A; 10 µM,inactive: 0
same,kinase-Nluc reporter destabilization hit call,HER2; 10 µM,inactive: 0
same,kinase-Nluc reporter destabilization hit call,INSRR; 10 µM,inactive: 0
Nc1ncnc2c1c(-c1ccc(Oc3ccccc3)cc1)nn2[C@@H]1CCCNC1,kinase-Nluc reporter destabilization hit call,EGFR; 2.5 µM,inactive: 0
same,kinase-Nluc reporter destabilization hit call,EGFR_G719S; 2.5 µM,inactive: 0
same,kinase-Nluc reporter destabilization hit call,EGFR_G719S_T790M; 2.5 µM,inactive: 0
same,kinase-Nluc reporter destabilization hit call,EGFR_L718V; 2.5 µM,inactive: 0
same,kinase-Nluc reporter destabilization hit call,EGFR_L858R; 2.5 µM,inactive: 0
same,kinase-Nluc reporter destabilization hit call,EGFR_L861Q; 2.5 µM,inactive: 0
same,kinase-Nluc reporter destabilization hit call,EGFR_T790M; 2.5 µM,inactive: 0
same,kinase-Nluc reporter destabilization hit call,EPHA2; 2.5 µM,inactive: 0
same,kinase-Nluc reporter destabilization hit call,ERBB3; 2.5 µM,inactive: 0
same,kinase-Nluc reporter destabilization hit call,[1]; 2.5 µM,inactive: 0
same,kinase-Nluc reporter destabilization hit call,ERN1; 2.5 µM,inactive: 0
same,kinase-Nluc reporter destabilization hit call,FGFR1; 2.5 µM,inactive: 0
same,kinase-Nluc reporter destabilization hit call,FGFR2; 2.5 µM,inactive: 0
same,kinase-Nluc reporter destabilization hit call,FGFR3; 2.5 µM,inactive: 0
same,kinase-Nluc reporter destabilization hit call,FGR; 2.5 µM,inactive: 0
same,kinase-Nluc reporter destabilization hit call,FLT3; 2.5 µM,inactive: 0
same,kinase-Nluc reporter destabilization hit call,FYN; 2.5 µM,inactive: 0
same,kinase-Nluc reporter destabilization hit call,GSK3A; 2.5 µM,inactive: 0
same,kinase-Nluc reporter destabilization hit call,HER2; 2.5 µM,inactive: 0
same,kinase-Nluc reporter destabilization hit call,INSRR; 2.5 µM,inactive: 0
C#Cc1cccc(Nc2ncnc3cc(OCCOC)c(OCCOC)cc23)c1 [Erlotinib],kinase-Nluc reporter destabilization hit call,EPHA2; 10 µM,inactive: 0
same,kinase-Nluc reporter destabilization hit call,ERBB3; 10 µM,inactive: 0
same,kinase-Nluc reporter destabilization hit call,[1]; 10 µM,inactive: 0
same,kinase-Nluc reporter destabilization hit call,ERN1; 10 µM,inactive: 0
same,kinase-Nluc reporter destabilization hit call,FGFR1; 10 µM,inactive: 0
same,kinase-Nluc reporter destabilization hit call,FGFR2; 10 µM,inactive: 0
same,kinase-Nluc reporter destabilization hit call,FGFR3; 10 µM,inactive: 0
same,kinase-Nluc reporter destabilization hit call,FGR; 10 µM,inactive: 0
same,kinase-Nluc reporter destabilization hit call,FLT3; 10 µM,inactive: 0
same,kinase-Nluc reporter destabilization hit call,FYN; 10 µM,inactive: 0
same,kinase-Nluc reporter destabilization hit call,GSK3A; 10 µM,inactive: 0
same,kinase-Nluc reporter destabilization hit call,HER2; 10 µM,inactive: 0
same,kinase-Nluc reporter destabilization hit call,INSRR; 10 µM,inactive: 0
CN(C)C/C=C/C(=O)Nc1cc2c(Nc3ccc(F)c(Cl)c3)ncnc2cc1O[C@H]1CCOC1 [Afatinib (dimaleate)],kinase-Nluc reporter destabilization hit call,EPHA2; 2.5 µM,inactive: 0
same,kinase-Nluc reporter destabilization hit call,ERBB3; 2.5 µM,inactive: 0
same,kinase-Nluc reporter destabilization hit call,[1]; 2.5 µM,inactive: 0
same,kinase-Nluc reporter destabilization hit call,ERN1; 2.5 µM,inactive: 0
same,kinase-Nluc reporter destabilization hit call,FGFR1; 2.5 µM,inactive: 0
same,kinase-Nluc reporter destabilization hit call,FGFR2; 2.5 µM,inactive: 0
same,kinase-Nluc reporter destabilization hit call,FGFR3; 2.5 µM,inactive: 0
same,kinase-Nluc reporter destabilization hit call,FGR; 2.5 µM,inactive: 0
same,kinase-Nluc reporter destabilization hit call,FLT3; 2.5 µM,inactive: 0
same,kinase-Nluc reporter destabilization hit call,FYN; 2.5 µM,inactive: 0
same,kinase-Nluc reporter destabilization hit call,GSK3A; 2.5 µM,inactive: 0
same,kinase-Nluc reporter destabilization hit call,HER2; 2.5 µM,active: 1
same,kinase-Nluc reporter destabilization hit call,INSRR; 2.5 µM,inactive: 0
CN(C)C(=O)c1cc2cnc(Nc3ccc(N4CCNCC4)cn3)nc2n1C1CCCC1 [Ribociclib succinate hydrate],kinase-Nluc reporter destabilization hit call,EGFR; 2.5 µM,inactive: 0
same,kinase-Nluc reporter destabilization hit call,EGFR_G719S; 2.5 µM,inactive: 0
same,kinase-Nluc reporter destabilization hit call,EGFR_G719S_T790M; 2.5 µM,inactive: 0
same,kinase-Nluc reporter destabilization hit call,EGFR_L718V; 2.5 µM,inactive: 0
same,kinase-Nluc reporter destabilization hit call,EGFR_L858R; 2.5 µM,inactive: 0
same,kinase-Nluc reporter destabilization hit call,EGFR_L861Q; 2.5 µM,inactive: 0
same,kinase-Nluc reporter destabilization hit call,EGFR_T790M; 2.5 µM,inactive: 0
same,kinase-Nluc reporter destabilization hit call,EPHA2; 2.5 µM,inactive: 0
same,kinase-Nluc reporter destabilization hit call,ERBB3; 2.5 µM,inactive: 0
same,kinase-Nluc reporter destabilization hit call,[1]; 2.5 µM,inactive: 0
same,kinase-Nluc reporter destabilization hit call,ERN1; 2.5 µM,inactive: 0
same,kinase-Nluc reporter destabilization hit call,FGFR1; 2.5 µM,inactive: 0
same,kinase-Nluc reporter destabilization hit call,FGFR2; 2.5 µM,inactive: 0
same,kinase-Nluc reporter destabilization hit call,FGFR3; 2.5 µM,inactive: 0
same,kinase-Nluc reporter destabilization hit call,FGR; 2.5 µM,inactive: 0
same,kinase-Nluc reporter destabilization hit call,FLT3; 2.5 µM,inactive: 0
same,kinase-Nluc reporter destabilization hit call,FYN; 2.5 µM,inactive: 0
same,kinase-Nluc reporter destabilization hit call,GSK3A; 2.5 µM,inactive: 0
same,kinase-Nluc reporter destabilization hit call,HER2; 2.5 µM,inactive: 0
same,kinase-Nluc reporter destabilization hit call,INSRR; 2.5 µM,inactive: 0

# Random excerpt: two entries already listed, in no set order.
smiles,measurement,setting,value
C#Cc1cccc(Nc2ncnc3cc4c(cc23)OCCOCCOCCO4)c1 [Icotinib],kinase-Nluc reporter destabilization hit call,GSK3A; 10 µM,inactive: 0
Nc1ncnc2c1c(-c1ccc(Oc3ccccc3)cc1)nn2[C@@H]1CCCNC1,kinase-Nluc reporter destabilization hit call,EGFR_G719S; 2.5 µM,inactive: 0

# A different layout for some results above.
smiles	measurement	setting	value
Nc1ncnc2c1c(-c1ccc(Oc3ccccc3)cc1)nn2[C@@H]1CCCNC1	kinase-Nluc reporter destabilization hit call	ERBB3; 2.5 µM	inactive: 0
same	kinase-Nluc reporter destabilization hit call	[1]; 2.5 µM	inactive: 0
same	kinase-Nluc reporter destabilization hit call	ERN1; 2.5 µM	inactive: 0
same	kinase-Nluc reporter destabilization hit call	FGFR1; 2.5 µM	inactive: 0
